PubChem BioAssay AID652272 – Drosophila RNAi Screening Center, 2013

Aim: 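Finding fly genes that regulate Hedgehog signal transduction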 (primary screen)
System: Drosophila clone 8 (Cl8) cells
Knock-down reagent: long dsRNA against Drosophila genes
Measured: 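Plate reader light from a firefly reporter under a ptc promoter fragment that responds to Hedgehog, with Renilla light as transfection reference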
Scale: firefly Hh reporter signal: higher = more ptc reporter light; Renilla reference signal: higher = more Renilla control light
Hit rule: 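Hit when the z-score averaged over two replicates is under -2 or over +3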
Meaning of the calls: active = hit: reporter lowered or raised; inactive = not a hit
The deposit covers about 21,000 reagents; this is a random part of those with a known target gene and a result. In the full data, 503 (2.4%) got an active call. 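Raw plate light values, not normalised; calls rest on replicate z-scores that were not deposited; hits include reporter decreases as well as increases.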 Unmarked entries are inactive. Not stated in the record: the amount of reagent, the time to read-out.

gene,dsRNA,"firefly Hh reporter signal, replicate 1","firefly Hh reporter signal, replicate 2","Renilla reference signal, replicate 1","Renilla reference signal, replicate 2"
CG8490,DRSC07194,98182,78784,4565,3221
robls54B (roadblock similar 54B),DRSC05660,1.04e5,1.90e5,2923,8055
Cyp4e3 (Cytochrome P450 4e3),DRSC03306,73706,50485,1816,4691
mRpL12 (mitochondrial ribosomal protein L12),DRSC10467,98893,56586,4112,2544
pim (pimples),DRSC03591,41239,26168,1921,1526
Ir56d (Ionotropic receptor 56d),DRSC06590,89300,58818,2080,3975
Pex12 (Peroxin 12),DRSC00622,72904,54512,2112,1712
CG11664,DRSC18650,51143,2.42e5,1385,9675
dgt1 (dim gamma-tubulin 1),DRSC15301,1.22e5 (active),60644,1419,915
CG42327,DRSC14936,63824,89650,2096,4997
CG42327,DRSC14937,1.45e5,1.71e5,4661,4816
boss (bride of sevenless),DRSC16916,5.12e5,89891,28689,6195
mnd (minidiscs),DRSC11370,97459,,993,2234
CG2003,DRSC15411,77659,2.80e5,2800,10018
Scox (Synthesis of cytochrome c oxidase),DRSC03117,1.02e5,62777,2464,5977
CG17141,DRSC15178,4.98e5,66082,25096,2250
CG13218,DRSC06340,1.10e5,54565,2332,3676
Girdin,DRSC08292,70468,29469,2436,1035
CG12773,DRSC18580,78774,82140,1033,2493
Nup75 (Nucleoporin 75kD),DRSC06947,60852 (active),37045,4099,2226
Jabba,DRSC06521,1.04e5,78555,4640,3296
phtm (phantom),DRSC20237,55264,2.00e5,1344,7237
CG17625,DRSC15249,5.11e5,1.19e5,24389,3542
BBS1 (Bardet-Biedl syndrome 1),DRSC10196,5.28e5,73926,2656,2656

An excerpt from the list above:
gene,dsRNA,"firefly Hh reporter signal, replicate 1","firefly Hh reporter signal, replicate 2","Renilla reference signal, replicate 1","Renilla reference signal, replicate 2"
Pex12 (Peroxin 12),DRSC00622,72904,54512,2112,1712
CG11664,DRSC18650,51143,2.42e5,1385,9675
dgt1 (dim gamma-tubulin 1),DRSC15301,1.22e5 (active),60644,1419,915

More entries:
gene,dsRNA,"firefly Hh reporter signal, replicate 1","firefly Hh reporter signal, replicate 2","Renilla reference signal, replicate 1","Renilla reference signal, replicate 2"
CG42390,DRSC15866,1.10e5,49143,4144,1777
vex (vexed),DRSC19481,94233,2.27e5,3040,8517
vex (vexed),DRSC19651,1.11e5,3.31e5,3257,11574
GM130 (Golgi matrix protein 130 kD),DRSC04617,64842,90743,2629,3625
CG3939,DRSC18498,1.26e5,1.87e5,4887,6599
CG10492,DRSC02064,33572,30091,1641,1351
Tbce (Tubulin-binding cofactor E),DRSC04897,96477,89405,3668,3434
Cdk5alpha (Cdk5 activator-like protein),DRSC03290,1.02e5,44885,2756,4595
cutlet,DRSC00284,2.19e5,86075,5541,8344
TM9SF2 (Transmembrane 9 superfamily protein member 2),DRSC03197,1.25e5,65861,4336,2473
Adk2 (Adenosine kinase 2),DRSC09827,1.11e5,55409,4400,1466
Sec20 (Secretory 20),DRSC12295,82865,1.15e5,3005,3261
beta-Man (beta-Mannosidase),DRSC12208,1.24e5,98956,4759,4087
beta-Man (beta-Mannosidase),DRSC12209,1.33e5,1.71e5,4608,4868
CG8180,DRSC07092,97030,86728,5067,3600
CG8180,DRSC07093,91763,49133,1930,2588
